# Data as given in patent publication US8293231B2, “Methods and compositions for treating ischemia” (Blue Blood Biotech Corp., priority 2005, dated 2012).
# At least one structure is not confirmed: it was looked up by name or label, or the drawing left a doubt.
# How the values were obtained:
# [1] = test system: HUVECs; test: Chemotaxis assay (Transwell); format: cell-based, human; settings: inhibitor or antibody present with TMD23
# Procedure: The chemotactic motility of HUVECs was assayed using Transwell (Costar) with 6.5-mm diameter polycarbonate filters (8-μm pore size). The lower filter surface was coated with 10 μg gelatin (Sigma-Aldrich). Various concentrations of TMD23 in the absence or presence of 10 μg/mL polyclonal rabbit anti-TMD23 antibody or 10 ng/mL vascular endothelial growth factor (VEGF) (R & D Systems, Inc.) in M199 were placed in the lower wells. One hundred […] cell suspension containing 1×10^5 cells was loaded into each of upper well. The chamber was incubated at 37° C. for 4 h. Cells were fixed with methanol and stained with 4′,6′-diamidino-2-phenylindole (DAPI). Chemotaxis was quantified with optical microscopy (Leica) at 100× magnification using MetaMorph imaging software (Universal Imaging Corporation) by counting the cells that migrated to the filter's lower side. Five random fields in each well were counted. […] Cell viability as determined by trypan blue staining was not altered by treatment. […]
# The chemotactic motility of HUVECs was assayed using Transwell (Costar) with 6.5-mm diameter polycarbonate filters (8-μm pore size). […] Chemotaxis was quantified with optical microscopy (Leica) at 100× magnification using MetaMorph imaging software (Universal Imaging Corporation) by counting the cells that migrated to the filter's lower side. Five random fields in each well were counted. […]
# [2] = test system: HUVECs; test: In vitro Matrigel angiogenesis assay (tube formation); format: cell-based, human; settings: IgG 10 μg/mL; inhibitors 10 μM
# Procedure: Growth-factor-reduced Matrigel (BD Biosciences) was thawed at 4° C. A total of 200 μL Matrigel was added to wells of a 48-well plate and polymerized 30 min at 37° C. Two hundred μL cell suspension containing various concentrations of VEGF, TMD23, or TMD23 in the presence of polyclonal rabbit anti-TMD23 antibody (10 μg/mL) or various signaling pathway inhibitors were plated onto Matrigel-coated wells at a density of 2.4×10^4 cells/well in M199 containing 10% FBS for 24 h at 37° C. in a 5% CO2 humidified atmosphere. Each concentration was tested in triplicate in the same plate, with wells photographed using a Leica camera (40× magnification). Tube length was quantified by measuring tubes in five randomly chosen fields from each well using MetaMorph software. Experiments were repeated at least three times.
# Growth-factor-reduced Matrigel (BD Biosciences) was thawed at 4° C. A total of 200 μL Matrigel was added to wells of a 48-well plate and polymerized 30 min at 37° C. […] Tube length was quantified by measuring tubes in five randomly chosen fields from each well using MetaMorph software. […]
smiles,measurement,setting,value
"O=c1cc(N2CCOCC2)oc2c(-c3ccccc3)cccc12 [LY 294002, reference compound]",Effect on the stimulatory effect of TMD23 on HUVEC migration,[1],blocked
same,Effect on the stimulatory effect of TMD23 on HUVEC tube formation,[2],blocked
